Measurements taken from patent EP0317956A2, “Anti-tumor prodrugs” (Bristol-Myers Squibb Company, priority 1987, dated 1989).
For at least one compound, name, drawing or mass did not settle the structure.

Key:
[1] = system: Namalwa (Burkitts lymphonia); experiment: ³H-Thymidine incorporation assay (cytotoxicity by inhibition of DNA synthesis), Namalwa; assay type: cell-based, human; conditions: cells exposed to drug for 1h at 37°C in PBS, then 19 hr incubation; ³H-Thy incorporation
[2] = system: HSB2 (human T cell leukemia); experiment: ³H-Thymidine incorporation assay (cytotoxicity by inhibition of DNA synthesis), HSB-2; assay type: cell-based; conditions: cells exposed to drug for 1h at 37°C in PBS, then 19 hr incubation; ³H-Thy incorporation

## COc1cccc2c1C(=O)c1c(O)c3c(c(O)c1C2=O)C[C@@](O)(C(C)=O)C[C@@H]3O[C@H]1C[C@H](NC(=O)OCc2ccccc2)[C@H](O)[C@H](C)O1 [Compound 29, DAU Benzyl Carbamate]
[1]
  IC-50 NAMALWA: 2x10⁻⁵ molar conc.
[2]
  IC-50 HSB-2: 3x10⁻⁶ molar conc.
